Reference: US20260097097A1
Results are given in words; binding and its absence hold for the method and conditions named. Some binding calls cover weakened binding; strength is not graded here.

Amino acid sequences for entries named in this document (tags omitted). A change or cut given only in a name is not applied to a line headed by its entry. Residues count along the entry.
UniProt P22004, residues 382-513: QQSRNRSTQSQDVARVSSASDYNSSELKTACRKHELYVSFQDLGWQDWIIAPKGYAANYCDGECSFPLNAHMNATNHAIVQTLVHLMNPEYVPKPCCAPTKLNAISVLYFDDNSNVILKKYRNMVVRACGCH
UniProt P27037: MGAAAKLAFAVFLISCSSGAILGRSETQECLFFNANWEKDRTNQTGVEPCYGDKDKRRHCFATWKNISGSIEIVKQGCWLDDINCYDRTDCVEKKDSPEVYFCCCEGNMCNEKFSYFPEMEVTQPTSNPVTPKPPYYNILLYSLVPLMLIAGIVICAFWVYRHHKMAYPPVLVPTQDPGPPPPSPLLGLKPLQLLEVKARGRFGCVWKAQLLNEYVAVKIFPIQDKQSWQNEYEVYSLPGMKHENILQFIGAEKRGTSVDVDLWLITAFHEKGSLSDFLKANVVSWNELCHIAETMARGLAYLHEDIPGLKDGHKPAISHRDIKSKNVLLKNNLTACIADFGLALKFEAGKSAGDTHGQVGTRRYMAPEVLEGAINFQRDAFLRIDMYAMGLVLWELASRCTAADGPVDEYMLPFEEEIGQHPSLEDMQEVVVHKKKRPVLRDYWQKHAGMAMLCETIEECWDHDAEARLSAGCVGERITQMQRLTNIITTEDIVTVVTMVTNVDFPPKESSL

Legend:
GDF11 = biological target: T1, GDF11 (UniProt O95390); assay: Biacore, ligand amine-coupled to CM5 chip
T1 sequence (looked up): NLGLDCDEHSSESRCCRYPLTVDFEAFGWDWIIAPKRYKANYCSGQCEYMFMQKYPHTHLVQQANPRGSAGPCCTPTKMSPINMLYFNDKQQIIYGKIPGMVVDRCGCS

BMP10 = biological target: T2, BMP10 (UniProt O95393); assay: similar Biacore binding assay
T2 sequence (looked up): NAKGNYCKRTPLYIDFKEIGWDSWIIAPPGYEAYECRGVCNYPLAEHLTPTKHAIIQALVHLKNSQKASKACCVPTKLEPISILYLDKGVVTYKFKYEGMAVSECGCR

BMP6 = BMP6 (UniProt P22004); assay: similar Biacore binding assay
GDF8 = biological target: T3, GDF8 (UniProt O14793); assay: similar Biacore binding assay
T3 sequence (looked up): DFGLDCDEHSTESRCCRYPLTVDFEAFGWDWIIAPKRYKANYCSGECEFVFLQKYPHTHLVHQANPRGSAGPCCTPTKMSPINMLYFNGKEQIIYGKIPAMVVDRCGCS

activin B = biological target: T4, activin B (UniProt P09529); assay: similar Biacore binding assay
T4 sequence (looked up): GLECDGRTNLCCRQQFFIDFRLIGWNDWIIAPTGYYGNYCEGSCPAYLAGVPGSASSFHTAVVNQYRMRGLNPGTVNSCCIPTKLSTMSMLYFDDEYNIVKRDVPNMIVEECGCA

Measured: binding

ActRIIa-mFc (from UniProt P27037 21-135) (Fc fusion)
binds: all assays above
